Results taken from patent US10035806B2, “Derivatized corroles and metallocorroles and their use as imaging and therapeutic agents” (CALIFORNIA INSTITUTE OF TECHNOLOGY, priority 2015, dated 2018).

What was measured:
SK-MEL-28 = experiment: Uptake of gallium corroles (ImageXpress confocal); type: cell-based, human; settings: 30 μM; for enhancement of fluorescence in melanoma cells compared with the other three cell lines: after 24 h
DU-145 = experiment: Uptake of gallium corroles (ImageXpress confocal); type: cell-based, human; settings: prostate cancer cells (DU-145), 30 μM, within 15 min, 37° C., dark

SMILES | fluorescence in melanoma cells compared with prostate, breast, and ovarian cancer cells (SK-MEL-28; after 3 h of incubation, median RFU) | cells with observable corrole fluorescence (SK-MEL-28; melanoma cells (SK-MEL-28), within 15 min, 37° C., dark) [%] | cells with observable corrole fluorescence (DU-145) [%] | enhancement of fluorescence in melanoma cells compared with the other three cell lines (SK-MEL-28; median RFU)
O=C(O)C1=CC2=[N+]3C1=C(c1c(F)c(F)c(F)c(F)c1F)c1ccc4[n]1[Ga-]31[n]3c(ccc32)C(c2c(F)c(F)c(F)c(F)c2F)=c2ccc([n]21)=C4c1c(F)c(F)c(F)c(F)c1F (stereo not drawn) [Complex 4] | twofold to threefold higher | > 99 | > 99 | 
O=S(=O)(O)C1=CC2=C(c3c(F)c(F)c(F)c(F)c3F)c3ccc4[n]3[Ga-]35[n]6c(cc(S(=O)(=O)O)c6C(c6c(F)c(F)c(F)c(F)c6F)=c6ccc([n]63)=C4c3c(F)c(F)c(F)c(F)c3F)C1=[N+]25 (stereo not drawn) [Complex 2] |  |  |  | twofold
Fc1c(F)c(F)c(C2=C3C=CC4=[N+]3[Ga-]35[n]6c2ccc6C(c2c(F)c(F)c(F)c(F)c2F)=c2ccc([n]23)=C(c2c(F)c(F)c(F)c(F)c2F)c2ccc4[n]25)c(F)c1F (stereo not drawn) [Complex 1, gallium(III) tris(pentafluorophenyl)corrole] |  |  |  | twofold
O=C(O)CCCCCNc1c(F)c(F)c(C2=C3C=CC4=[N+]3[Ga-]35[n]6c2ccc6C(c2c(F)c(F)c(F)c(F)c2F)=c2ccc([n]23)=C(c2c(F)c(F)c(F)c(F)c2F)c2ccc4[n]25)c(F)c1F (stereo not drawn) [Complex 3] |  |  |  | twofold
